Laboratory results from PMC7652997, “Regulation of γ-Aminobutyrate (GABA) Utilization in Corynebacterium glutamicum by the PucR-Type Transcriptional Regulator GabR and by Alternative Nitrogen and Carbon Sources”.

Target: T1, GabR (Corynebacterium glutamicum WT) (UniProt Q8NT36)
T1 sequence (looked up, limits assumed): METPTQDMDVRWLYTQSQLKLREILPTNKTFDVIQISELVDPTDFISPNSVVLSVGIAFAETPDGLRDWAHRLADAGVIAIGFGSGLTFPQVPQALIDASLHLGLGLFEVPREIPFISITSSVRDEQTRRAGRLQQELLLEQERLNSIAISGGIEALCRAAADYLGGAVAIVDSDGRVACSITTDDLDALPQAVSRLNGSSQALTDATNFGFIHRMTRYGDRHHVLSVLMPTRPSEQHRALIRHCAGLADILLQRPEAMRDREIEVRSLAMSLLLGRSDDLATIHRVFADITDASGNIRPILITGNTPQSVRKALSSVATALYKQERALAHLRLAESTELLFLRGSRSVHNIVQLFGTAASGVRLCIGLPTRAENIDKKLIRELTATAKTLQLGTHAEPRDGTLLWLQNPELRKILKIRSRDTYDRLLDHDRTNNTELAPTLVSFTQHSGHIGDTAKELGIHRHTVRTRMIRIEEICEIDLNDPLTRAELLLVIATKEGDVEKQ
Assay: EMSA
Conditions: 10 mM Tris-HCl pH 7.5, 50 mM NaCl, 5% glycerol, 0.005% Triton X-100, 20 min at room temperature, 100 ng DNA, 0-2.6 uM GabR monomer, native PAGE in TB buffer pH 8.2 on ice, recombinant protein, protein details: N-terminal His10 removed with TEV protease

[1] = very poor shift, probe letters rebuilt from the primers and the genome
[2] = full shift, probe letters rebuilt from the primers and the genome

Sequence: ATTTCACGGGGGACTTCAAAGAGGCCGAGGCCAAGGTGGAGGGAGGCGTCGATAAGCGCCTGCGGAACCTGTGGGAAGGTGAGGCCGGAGCCGAACCCGATCGCGATGACCCCTGCGTCGGCGAGTCGGTGTGCCCAATCGCGAAGCCCGTCGGGCGTTTCTGCGAAGGCGATGCCAACGGATAAGACCACGCTGTTGGGGCTGATGAAGTCGGTGGGGTCAACGAGTTCGCTGATTTGGATGACATCGAAGGTTTTGTTTGTGGGGAGAATTTCGCGGAGTTTGAGCTGGCTTTGGGTGTATAACCAGCGGACATCCATGTCTTGGGTTGGGGTTTCCATGGCGTTAAACTCCTGTCAATTA (double strand) [FA5]
- binding result [1]: binds more weakly

Sequence: ATTTCACGGGGGACTTCAAAGAGGCCGAGGCCAAGGTGGAGGGAGGCGTCGATAAGCGCCTGCGGAACCTGTGGGAAGGTGAGGCCGGAGCCGAACCCGATCGCGATGACCCCTGCGTCGGCGAGTCGGTGTGCCCAATCGCGAAGCCCGTCGGGCGTTTCTGCGAAGGCGATGCCAACGGATAAGACCACGCTGTTGGGGCTGATGAAGTCGGTGGGGTCAACGAGTTCGCTGATTTGGATGACATCGAAGGTTTTGTTTGTGGGGAGAATTTCGCGGAGTTTGAGCTGGCTTTGGGTGTATAACCAGCGGACATCCATGTCTTGGGTTGGGGTTTCCATGGCGTTAAACTCCTGTCAATTATCCATATGGGCGAAATATTG (double strand) [FA4]
- binding result [1]: binds more weakly

Sequence: ATTTCACGGGGGACTTCAAAGAGGCCGAGGCCAAGGTGGAGGGAGGCGTCGATAAGCGCCTGCGGAACCTGTGGGAAGGTGAGGCCGGAGCCGAACCCGATCGCGATGACCCCTGCGTCGGCGAGTCGGTGTGCCCAATCGCGAAGCCCGTCGGGCGTTTCTGCGAAGGCGATGCCAACGGATAAGACCACGCTGTTGGGGCTGATGAAGTCGGTGGGGTCAACGAGTTCGCTGATTTGGATGACATCGAAGGTTTTGTTTGTGGGGAGAATTTCGCGGAGTTTGAGCTGGCTTTGGGTGTATAACCAGCGGACATCCATGTCTTGGGTTGGGGTTTCCATGGCGTTAAACTCCTGTCAATTATCCATATGGGCGAAATATTGTCTACAACTTCGCCCTCATG (double strand) [FA3]
- binding result (partial shift, probe letters rebuilt from the primers and the genome): binds more weakly

Sequence: ATTTCACGGGGGACTTCAAAGAGGCCGAGGCCAAGGTGGAGGGAGGCGTCGATAAGCGCCTGCGGAACCTGTGGGAAGGTGAGGCCGGAGCCGAACCCGATCGCGATGACCCCTGCGTCGGCGAGTCGGTGTGCCCAATCGCGAAGCCCGTCGGGCGTTTCTGCGAAGGCGATGCCAACGGATAAGACCACGCTGTTGGGGCTGATGAAGTCGGTGGGGTCAACGAGTTCGCTGATTTGGATGACATCGAAGGTTTTGTTTGTGGGGAGAATTTCGCGGAGTTTGAGCTGGCTTTGGGTGTATAACCAGCGGACATCCATGTCTTGGGTTGGGGTTTCCATGGCGTTAAACTCCTGTCAATTATCCATATGGGCGAAATATTGTCTACAACTTCGCCCTCATGGACATATTAACTTCGTTGCC (double strand) [FA2]
- binding result [2]: binds

Sequence: CTACAACTTCGCCCTCATGGACATATTAACT (double strand) [FS4]
- binding result (not much stronger than negative control): binds more weakly

Sequence: GAGCAGTGCAGAGACTGGGACTGCAACGTCTTGGTTCTGCAGGATTGCGCGGGTGATGCGAGCAAGACCCATGCCGATGCCGTAGGAAGTGGAGCCCTTGGCGTCGATAATGTGATAGGCAGCGTCGCGGGTGTCTTCGAAAATTTTCTCTAGACGGCCCTCAAGCTCTGGGTCTTTGTCCAGCATTCGGCTAAGCGATACGCCTGCGATGGTCGCGGAGGACAGGACTGGAAGTTCAGTGTCGCCGTGTTCGCCGATGATGTAGGCGTGGACGGAGCTTGGTGCCACTTCGTAGAGTTCGCCCAGCATGTAGCGGAATCGAGCGGAGTCCAGGACAGTTCCGGAGCCGATCACGCGGTTCCATTCCAAGCCGGAGAATTTCCACACTGCGTAGGTCAGGATATCCACTGGGTTGGACGCCACGAGGAAGATGCCGTCGAATCCGCTGTCCATGACATCGCCGACGATGGATTTCATAATCTTGACGTTTTTGTCCAC (double strand) [NC1 (ldhA)]
- binding result (no shift up to 320 nM monomer, probe letters rebuilt from the primers and the genome): no binding

Sequence: GTATGAGAGATCTTCCACGGTTCCTCCTGTGAGGTGAGATACAAACTGTTGTCTAGGTGATGAGTATTCTCTCCGAGGCAACGAAGTTAATATGTCCATGAGGGCGAAGTTGTAGACAATATTTCGCCCATATGGATAATTGACAGGAGTTTAACGCCATGGAAACCCCAACCCAAGACATGGATGTCCGCTGGTTATACACCCAAAGCCAGCTCAAACTCCGCGAAATTCTCCCCACAAACAAAACCTTCGATGTCATCCAAATCAGCGAACTCGTTGACCCCACCGACTTCATCAGCCCCAACAGCGTGGTCTTATCCGTTGGCATCGCCTTCGCAGAAACGCCCGACGGGCTTCGCGATTGGGCACACCGACTCGCCGACGCAGGGGTCATCGCGATCGGGTTCGGCTCCGGCCTCACCTTCCCACAGGTTCCGCAGGCGCTTATCGACGCCTCCCTCCACCTTGGCCTCGGCCTCTTTGAAGTCCCCCGTGAAAT (double strand) [PgabT 500 bp]
- binding result (partial shift at 80 nM, full at 240 nM monomer, probe letters rebuilt from the primers and the genome): binds

Sequence: TAGGTGATGAGTATTCTCTCCGAGGCAACGAAGTTAATATGTCCATGAGGGCGAAGTTGTAGACAATATTTCGCCCATATGGATAATTGACAGGAGTTTAACGCCATGGAAACCCCAACCCAAGACATGGATGTCCGCTGGTTATACACCCAAAGCCAGCTCAAACTCCGCGAAATTCTCCCCACAAACAAAACCTTCGATGTCATCCAAATCAGCGAACTCGTTGACCCCACCGACTTCATCAGCCCCAACAGCGTGGTCTTATCCGTTGGCATCGCCTTCGCAGAAACGCCCGACGGGCTTCGCGATTGGGCACACCGACTCGCCGACGCAGGGGTCATCGCGATCGGGTTCGGCTCCGGCCTCACCTTCCCACAGGTTCCGCAGGCGCTTATCGACGCCTCCCTCCACCTTGGCCTCGGCCTCTTTGAAGTCCCCCGTGAAAT (double strand) [FA1]
- binding result [2]: binds

Construct, isoform or probe ends are uncertain for at least one entry. No signal at the amounts used counts as a negative. Where a protein sequence is shown, tags need not be part of it. A weaker result is weaker than the reference pair of the same experiment.
